“And” between values parts separate entries of the source, which are not always exact repeats. Equal entries are not always repeated. This is one part of the list. Further columns of the screen follow, without active or inactive calls. Compounds called inactive in the main read-out are mostly missing here. The note in brackets gives the kind of curve behind each potency; many fits are weak.
Assay: qHTS Assay for Modulators of Lamin A Splicing
Details: HeLa LMNA splicing GFP/RFP minigene ratio, 48 h
How it was run: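 S3 HeLa stable clones carrying a lamin A-EGFP splicing minigene plus DsRed2 were seeded at 600 cells/well in Opti-MEM with 2% FBS, pin-dosed and incubated 48 h at 37°C. Acumen cytometry (488 nm) gave the GFP/RFP total-intensity ratio.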

[1] = measured here: GFP splicing reporter channel
[2] = measured here: RFP viability control channel

SMILES	AC50 [1]	AC50 [2]
CN(C)c1ccc(/C(=N\O)C(F)(F)F)cc1	35.5 µM [rising, single point]	
C[C@@H]1OC(OC2CC[C@@]3(C)C(CC[C@@]4(C)C3CC=C3C5CC(C)(C)CC[C@]5(C(=O)OC5OCC(O)[C@@H](O)[C@@H]5OC5O[C@@H](C)[C@H](O[C@H]6OC(CO)C(O)C(O)C6O)C(O)C5O)C(O)C[C@@]34C)C2(C)C)C(O)C(O)[C@H]1OC1OCC(O)C(O)[C@H]1O (some centres not stated)	35.5 µM [falling, single point]	35.5 µM [falling, single point]
Cc1cc(Sc2ncnc(N)c2[N+](=O)[O-])ncn1	7.94 µM [falling, partial curve]	17.8 µM [falling, partial curve]
CC(C)C(=O)Nc1cccc(C(=O)Nc2ccc3c(c2)OCO3)c1		7.94 µM [rising, partial curve]
CCCCCCCCNc1ncnc2ccccc12		0.251 µM [rising, full curve]
CC(C)CNC(=O)CN(C1CCCCC1)S(C)(=O)=O		0.562 µM [rising, full curve, poor fit]
CC1CCCN(C2=C(NS(=O)(=O)c3ccc(Cl)cc3)C(=O)c3ccccc3C2=O)C1 (configuration not stated)		0.0126 µM [falling, full curve, poor fit]
Cc1ccc(C2c3[nH]c4ccccc4c3CCN2C(=O)c2ccccc2Br)cc1 (configuration not stated)		35.5 µM [rising, partial curve]
C=C(C)C1CC=C(C)/C(=N\NC(=O)CNc2ccccc2OC)C1 (configuration not stated)		25.1 µM [rising, single point]
O=C(CN1CC(=O)Oc2ccccc21)OCC(=O)c1cccc(Br)c1	2.24 µM [falling, partial curve]	1.12 µM [falling, partial curve]
COc1ccc(S(=O)(=O)N(C)c2ccc(C(=O)N3CCCC3)cc2)cc1	0.0126 µM [rising, full curve, poor fit]	
CCc1ccc(NC(=O)COn2nnc3ccc(S(=O)(=O)N(C)C)cc32)cc1		20 µM [rising, single point]
O=C(O)C1Nc2c(O)cc(Cl)c([N+](=O)[O-])c2C2C=CCC12 (configuration not stated)		0.1 µM [rising, full curve, poor fit]
COc1ccc(/C=C/C(=O)c2nc3ccccc3n2CC(=O)c2ccc(OC)cc2)cc1		35.5 µM [rising, single point]
COC(=O)c1ccccc1NC(=O)c1ccc(COc2ccc3c(c2)CCC3)cc1	1.78 µM [rising, full curve, poor fit]	
COc1ccc(Cc2noc(CN(C)Cc3ccc(-n4cccn4)cc3)n2)cc1OC		1.26 µM [falling, partial curve]
NC(=O)C[n+]1cccc(/C=N/O)c1	0.501 µM [rising, full curve, poor fit]	
Nc1nc2ncc(CNc3ccc(C(=O)NC(CCC(=O)O)C(=O)O)cc3)nc2c(=O)[nH]1 (configuration not stated)	0.00224 µM [falling, full curve, poor fit]	
CCCCN1Cc2c(nc3cc(-c4ccccc4)[nH]n3c2=O)C1=O		0.0447 µM [falling, full curve, poor fit]
CNc1ccccc1C(=O)N1CCc2c([nH]c3ccccc23)C1=O	15.8 µM [falling, partial curve, poor fit]	20 µM [rising, single point]
CCc1ccc(-c2[nH]nc3nc(-c4ccc(OC)cc4)cc(C(=O)NCCCOC)c23)cc1	7.08 µM [rising, partial curve]	
Cc1ccccc1N=C1Nc2ccccc2CS1	11.2 µM [rising, partial curve]	22.4 µM [rising, partial curve]
CC1CCN(CCCOc2ccc(OCc3ccccc3)cc2)CC1		31.6 µM [rising, single point]
Cc1cccc(C)c1Nc1nnc(SCC(=O)c2ccc(Br)s2)s1		35.5 µM [rising, single point]
Cc1nc2ccc(S(=O)(=O)N(CC(=O)Nc3cccc(Cl)c3)Cc3ccccc3)cc2s1		0.00316 µM [falling, full curve, poor fit]
CC(=O)OCC1OC(Oc2cc(OC(C)=O)c3c(=O)cc(-c4ccc(OC(C)=O)cc4)oc3c2)[C@@H](OC(C)=O)C(OC(C)=O)C1OC(C)=O (some centres not stated)	17.8 µM [falling, partial curve]	15.8 µM [falling, partial curve]
Cc1ccc(OCCN2CCN(c3ncnc4sc(C)c(C)c34)CC2)cc1	2.82 µM [rising, full curve]	2.51 µM [rising, full curve]

Some of these compounds in order of formula weight, falling.
SMILES	AC50 [1]	AC50 [2]
CC(=O)OCC1OC(Oc2cc(OC(C)=O)c3c(=O)cc(-c4ccc(OC(C)=O)cc4)oc3c2)[C@@H](OC(C)=O)C(OC(C)=O)C1OC(C)=O (some centres not stated)	17.8 µM [falling, partial curve]	15.8 µM [falling, partial curve]
Cc1cccc(C)c1Nc1nnc(SCC(=O)c2ccc(Br)s2)s1		35.5 µM [rising, single point]
Cc1cc(Sc2ncnc(N)c2[N+](=O)[O-])ncn1	7.94 µM [falling, partial curve]	17.8 µM [falling, partial curve]

(next part)

SMILES	AC50 [1]	AC50 [2]
CCCCOc1ccc(CNC(=O)Cc2ccc(NC(=O)N3CCCCc4ccccc43)cc2)cc1		35.5 µM [rising, single point]
Cc1ccc(CN2CCN(Cc3c(C)nn(-c4ccc(F)cc4)c3C)CC2CCO)o1 (configuration not stated)	0.141 µM [falling, single point]	0.1 µM [falling, single point]
COc1ccc(-c2nc(SCC(=O)N3CCN(c4ccc(F)cc4)CC3)n[nH]2)cc1	1.41 µM [rising, partial curve, poor fit]	
CN1CCN(c2ncc3nc(CCc4ccccc4)c(=O)n(C4CC4)c3n2)CC1	20 µM [falling, single point]	20 µM [falling, partial curve]
Cn1c(Sc2ccccc2Cl)c(C=O)c2ccccc21	0.631 µM [falling, full curve]	
CCOC(=O)c1c(NC(=O)C2C3C=CC(C3)C2C(=O)O)sc2c1CCC(CC)C2 (configuration not stated)		15.8 µM [rising, partial curve]
COc1ccc(OC)c(Nc2cc(-c3ccccc3)nc(N)n2)c1	35.5 µM [falling, single point]	
Nc1c2c(nc3ccccc13)CCCC2O (configuration not stated)	2 µM [falling, full curve]	1.41 µM [falling, full curve, poor fit]
Cc1ccc(S(=O)(=O)N2CCCc3cc(NS(=O)(=O)c4cc(F)ccc4F)ccc32)cc1	35.5 µM [rising, partial curve, poor fit]	22.4 µM [rising, single point]
CCn1c2ccccc2c2cc(NC(=O)Cc3ccc(S(=O)(=O)N4CCOCC4)s3)ccc21		31.6 µM [rising, single point]
O=C(Cn1cc(S(=O)(=O)N2CCCC2)c(S(=O)(=O)N2CCCC2)c1)Nc1ccccc1	0.794 µM [falling, full curve, poor fit]	0.398 µM [falling, full curve]
CCc1nnc(NC(=O)c2ccc(S(=O)(=O)N(CC(C)C)CC(C)C)cc2)o1		15.8 µM [rising, partial curve]
O=C(N1CCOCC1)N1CCN(c2nc(-c3ccc(F)cc3)cs2)CC1		17.8 µM [rising, partial curve, poor fit]
CC(=O)CCc1c(C)c2cccc(C)c2[nH]c1=O	20 µM [falling, partial curve, poor fit]	3.55 µM [falling, partial curve, poor fit]
COC(=O)N/N=C/c1ccc(-c2cc(Cl)cc(Cl)c2)o1		8.91 µM [rising, partial curve]
Cc1cc(N)c2ccccc2[n+]1CCCCCCCCCC[n+]1c(C)cc(N)c2ccccc21	5.01 µM [falling, full curve, poor fit]	794 nM [falling, partial curve, poor fit] and 5.01 µM [falling, full curve, poor fit]
CCN(CC)c1ccc2cc(C=O)c(=O)oc2c1	14.1 µM [rising, single point]	
CCCCNc1nc(-c2ccccc2)c(C(=O)OCC)cc1C#N	35.5 µM [falling, single point]	35.5 µM [falling, single point]
O=C(CC(c1ccccc1)c1ccccc1O)NCc1ccco1 (configuration not stated)	12.6 µM [rising, single point]	12.6 µM [rising, single point]
O=C(CSc1ncnc2scc(-c3ccc(Cl)cc3)c12)NCc1ccc2c(c1)OCO2	11.2 µM [falling, partial curve]	11.2 µM [falling, single point]
COc1ccc(Oc2ncc3nc(-c4cccc(C#N)c4)c(=O)n(Cc4cccc(OC)c4)c3n2)cc1	10 µM [falling, partial curve]	17.8 µM [falling, partial curve, poor fit]
O=[N+]([O-])c1cc(Cl)c2cccnc2c1O	11.2 µM [falling, single point]	
CCOC(=O)C1=C(C)N=c2s/c(=C\c3ccncc3)c(=O)n2C1c1ccc2c(c1)OCO2 (configuration not stated)		12.6 µM [rising, single point]
COc1ccc2c(c1)c(C(O)CN1CCN(Cc3ccc4c(c3)OCO4)CC1)c(C)n2C (configuration not stated)	35.5 µM [rising, single point]	35.5 µM [rising, single point]
CCc1cccc2c(C(=O)CSc3nncn3-c3ccc(OC)cc3)c[nH]c12		35.5 µM [rising, single point]
COc1ccc(-c2noc(CCC(=O)NCC3CCN(Cc4cccc(C)c4)CC3)n2)cc1		31.6 µM [rising, single point]
